PubChem BioAssay AID2662 (National Center for Advancing Translational Sciences (NCATS), 2010)
In all, about 290,000 compounds went through this assay and about 110 (0.038%) were called active. The shares of active, inactive and inconclusive entries below differ from those in the screen. Calls follow the shape of the dose curve; as a rule, active = well fitted inhibition curve with a large enough effect in the polarisation, with a control signal flat (not every such curve was filed as active); inconclusive = small, poorly fitted or top-dose-only effect, or effect the other way, or a change in a side signal; inactive = no such curve, though single readings can be large or run the other way; the % refers to the polarisation. A potency beside an inconclusive call is a rough fit, not a confirmed value. A note “side channel” means that the fit belongs to a control or component signal, not to the main read-out.

Chains of the proteins cited; added tags and fusions are not shown.
UniProt Q03164, whole entry, looked up: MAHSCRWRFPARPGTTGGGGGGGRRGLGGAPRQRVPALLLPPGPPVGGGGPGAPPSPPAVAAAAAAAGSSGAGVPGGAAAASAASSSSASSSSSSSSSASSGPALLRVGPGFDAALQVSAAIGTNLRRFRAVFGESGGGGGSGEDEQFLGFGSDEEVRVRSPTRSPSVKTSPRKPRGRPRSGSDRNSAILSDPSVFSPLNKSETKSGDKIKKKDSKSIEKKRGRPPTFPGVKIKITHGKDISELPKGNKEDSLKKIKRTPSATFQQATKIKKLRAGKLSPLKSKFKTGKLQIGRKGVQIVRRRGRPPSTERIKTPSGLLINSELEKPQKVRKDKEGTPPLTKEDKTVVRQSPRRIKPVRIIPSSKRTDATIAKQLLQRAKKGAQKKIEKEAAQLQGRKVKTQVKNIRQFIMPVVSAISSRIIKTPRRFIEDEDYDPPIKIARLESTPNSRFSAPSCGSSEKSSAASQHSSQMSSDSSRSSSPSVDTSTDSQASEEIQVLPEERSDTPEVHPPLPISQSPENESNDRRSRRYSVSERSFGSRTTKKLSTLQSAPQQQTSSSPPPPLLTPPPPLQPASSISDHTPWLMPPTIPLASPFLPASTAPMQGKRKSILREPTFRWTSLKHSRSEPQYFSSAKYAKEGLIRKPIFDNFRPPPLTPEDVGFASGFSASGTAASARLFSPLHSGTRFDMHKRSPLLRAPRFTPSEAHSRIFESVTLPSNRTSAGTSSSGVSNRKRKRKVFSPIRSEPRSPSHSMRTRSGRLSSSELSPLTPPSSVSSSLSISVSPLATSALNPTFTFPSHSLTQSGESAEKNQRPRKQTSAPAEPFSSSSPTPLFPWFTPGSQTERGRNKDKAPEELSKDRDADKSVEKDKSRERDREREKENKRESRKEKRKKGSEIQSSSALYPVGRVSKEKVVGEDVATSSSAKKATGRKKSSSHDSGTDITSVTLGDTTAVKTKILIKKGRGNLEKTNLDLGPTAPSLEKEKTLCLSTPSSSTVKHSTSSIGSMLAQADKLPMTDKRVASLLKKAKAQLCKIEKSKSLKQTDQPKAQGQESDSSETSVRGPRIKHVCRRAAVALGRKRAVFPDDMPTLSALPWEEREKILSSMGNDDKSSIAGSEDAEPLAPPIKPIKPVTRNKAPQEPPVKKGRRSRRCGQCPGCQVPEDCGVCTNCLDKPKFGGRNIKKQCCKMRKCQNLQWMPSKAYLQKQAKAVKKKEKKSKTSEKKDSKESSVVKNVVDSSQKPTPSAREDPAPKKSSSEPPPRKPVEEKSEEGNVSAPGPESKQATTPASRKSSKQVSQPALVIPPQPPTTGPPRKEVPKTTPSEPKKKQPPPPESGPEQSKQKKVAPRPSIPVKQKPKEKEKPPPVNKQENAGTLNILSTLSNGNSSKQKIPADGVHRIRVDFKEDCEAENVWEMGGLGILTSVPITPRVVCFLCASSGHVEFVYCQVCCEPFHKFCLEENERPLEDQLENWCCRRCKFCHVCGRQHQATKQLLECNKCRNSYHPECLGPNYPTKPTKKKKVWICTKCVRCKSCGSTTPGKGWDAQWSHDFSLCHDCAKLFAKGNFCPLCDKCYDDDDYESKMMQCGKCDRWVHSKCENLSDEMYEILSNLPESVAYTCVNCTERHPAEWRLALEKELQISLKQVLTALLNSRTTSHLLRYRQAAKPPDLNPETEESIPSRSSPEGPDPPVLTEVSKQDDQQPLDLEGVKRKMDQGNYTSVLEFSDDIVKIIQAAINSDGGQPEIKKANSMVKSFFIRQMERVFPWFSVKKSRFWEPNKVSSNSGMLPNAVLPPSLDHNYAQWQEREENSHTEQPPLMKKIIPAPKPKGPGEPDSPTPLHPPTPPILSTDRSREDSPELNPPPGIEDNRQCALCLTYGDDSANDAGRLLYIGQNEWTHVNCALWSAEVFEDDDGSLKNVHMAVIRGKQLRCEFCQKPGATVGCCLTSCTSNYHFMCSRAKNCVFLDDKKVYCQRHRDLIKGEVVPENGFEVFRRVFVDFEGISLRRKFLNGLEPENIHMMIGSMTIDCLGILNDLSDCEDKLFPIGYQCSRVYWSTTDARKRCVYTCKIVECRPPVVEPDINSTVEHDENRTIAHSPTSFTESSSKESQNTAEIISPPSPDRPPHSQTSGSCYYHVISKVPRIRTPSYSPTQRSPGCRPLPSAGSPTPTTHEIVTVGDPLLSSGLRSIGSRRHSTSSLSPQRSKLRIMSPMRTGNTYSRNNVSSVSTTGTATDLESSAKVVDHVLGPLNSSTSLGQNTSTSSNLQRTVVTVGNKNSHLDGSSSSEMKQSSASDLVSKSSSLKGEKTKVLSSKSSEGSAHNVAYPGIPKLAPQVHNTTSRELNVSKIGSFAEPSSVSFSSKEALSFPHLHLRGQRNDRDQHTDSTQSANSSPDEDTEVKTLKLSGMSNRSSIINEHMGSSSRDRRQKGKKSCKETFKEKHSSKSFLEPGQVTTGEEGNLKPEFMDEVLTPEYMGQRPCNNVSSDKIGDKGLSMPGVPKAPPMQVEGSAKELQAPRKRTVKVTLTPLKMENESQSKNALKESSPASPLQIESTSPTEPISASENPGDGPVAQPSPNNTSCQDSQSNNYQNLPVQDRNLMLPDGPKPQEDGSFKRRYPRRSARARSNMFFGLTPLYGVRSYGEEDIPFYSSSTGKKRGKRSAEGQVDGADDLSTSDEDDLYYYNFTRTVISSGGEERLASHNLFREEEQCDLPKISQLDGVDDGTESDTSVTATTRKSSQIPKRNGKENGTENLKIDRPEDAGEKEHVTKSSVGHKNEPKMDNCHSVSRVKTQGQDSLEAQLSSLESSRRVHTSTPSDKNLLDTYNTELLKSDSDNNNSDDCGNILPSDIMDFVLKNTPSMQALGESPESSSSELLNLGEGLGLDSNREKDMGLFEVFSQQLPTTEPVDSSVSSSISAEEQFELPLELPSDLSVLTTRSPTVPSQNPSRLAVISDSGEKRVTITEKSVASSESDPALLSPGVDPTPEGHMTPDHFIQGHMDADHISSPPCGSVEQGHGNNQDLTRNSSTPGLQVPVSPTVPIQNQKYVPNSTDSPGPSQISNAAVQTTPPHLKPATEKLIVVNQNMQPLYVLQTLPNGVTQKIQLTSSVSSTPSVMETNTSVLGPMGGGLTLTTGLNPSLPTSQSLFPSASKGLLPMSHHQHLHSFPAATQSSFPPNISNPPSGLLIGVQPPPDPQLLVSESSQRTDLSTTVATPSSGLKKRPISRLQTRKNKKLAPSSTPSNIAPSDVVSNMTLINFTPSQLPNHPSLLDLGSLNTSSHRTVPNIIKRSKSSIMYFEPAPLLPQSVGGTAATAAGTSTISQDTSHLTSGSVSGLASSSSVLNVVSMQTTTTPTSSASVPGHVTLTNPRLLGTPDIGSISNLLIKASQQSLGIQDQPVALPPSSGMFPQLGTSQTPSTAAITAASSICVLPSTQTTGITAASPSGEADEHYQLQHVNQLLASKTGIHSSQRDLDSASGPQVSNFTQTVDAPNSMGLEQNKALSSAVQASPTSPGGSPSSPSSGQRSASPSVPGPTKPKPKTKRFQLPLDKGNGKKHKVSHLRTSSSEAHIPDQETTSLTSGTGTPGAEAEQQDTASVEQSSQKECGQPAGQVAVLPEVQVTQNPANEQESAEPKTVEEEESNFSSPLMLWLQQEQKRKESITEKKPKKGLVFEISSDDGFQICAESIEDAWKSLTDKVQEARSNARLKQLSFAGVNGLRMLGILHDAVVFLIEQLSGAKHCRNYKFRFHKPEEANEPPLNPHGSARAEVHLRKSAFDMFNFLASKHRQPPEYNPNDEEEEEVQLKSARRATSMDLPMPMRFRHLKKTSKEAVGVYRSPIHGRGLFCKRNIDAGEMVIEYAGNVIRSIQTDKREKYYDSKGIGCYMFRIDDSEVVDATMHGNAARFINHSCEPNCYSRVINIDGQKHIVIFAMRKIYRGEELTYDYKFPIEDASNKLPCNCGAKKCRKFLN

Each molecule was assayed against Histone-lysine N-methyltransferase 2A (Homo sapiens) (UniProt Q03164) (assay: qHTS Fluorescence Polarization Assay for Inhibitors of MLL CXXC domain - DNA interaction). Conditions: MLL-CXXC / FITC-HOXA9 DNA fluorescence polarization; series mostly up to 115 µM.
Excerpt: NIH Chemical Genomics Center [NCGC] NIH Molecular Libraries Probe Production centers Network [MLPCN] MLPCN Grant: DA027717-01A1 Assay Submitter (PI): John Bushweller NCGC Assay Overview: The MLL (Mixed Lineage Luekemia) gene is involved in chromosomal translocation that results in either acute lymphoid leukemia (ALL) or acute myeloid leukemia (AML). Chromasomal translocation of MLL gene is responsible for the fusion of N-terminal MLL to more than 60 different partner genes in frame. Many of the MLL partner genes contain transcription activation domains or function as transcriptional activators. Despite the heterogeneity of fusion partners, the N-terminus of MLL fusion proteins always consists of the N-terminal menin binding motif and the CXXC domain. The MLL-CXXC domain specifically recognizes unmethylated CpG sequences of the HOX-A gene. Disruption of the MLL-CXXC and HOX-A gene interaction leads to down regulation of HOX-A gene expression and may potentially reverse leukemogenesis. We have miniaturized and optimized an in-vitro assay to screen for inhibitors of the MLL-CXXC domain and HOX-A DNA interaction, which could have utility in MLL fusion leukemias.
The affinity purified MLL-CXXC domain, unlabeled HOX-A9 DNA strand, fluorescein (FLSN) labeled HOX-A9 DNA strand were kindly supplied by the laboratory of Dr. John Bushweller, University of Virginia. All reagents were stored in single use aliquots at -80C. Assay Reagents: Assay buffer: 50 mM TRIS-HCl pH 7.5, 50 mM NaCl, 1 mM DTT. Add 0.05% BSA prior to reaction setup. Assay Procedure: 1.Dispense 1 ul of a 7 uM MLL-CXXC solution prepared in assay buffer into column 1-48. 2.Transfer 23 nl of compounds and unlabeled HOX-A9 per well. 3.Incubate for 5 minutes at ambient. 4.Dispense 1ul of a 50 nM FLSN-HOX-A9 solution prepared in assay buffer into columns 1-48 5.Centrifuge for 30 seconds at 1000 RPM. 6.Incubate for 30 minutes at ambient. 7.Read using the Envision reader fluorescent polarization protocol.
Potency is read from the fitted curve at half-maximal effect.

| Compound | Potency |
| --- | --- |
| OCCCc1nc2n(n1)C(c1cccs1)C=C(c1ccccc1)N2 (stereo unspecified) | inconclusive: 17.8 µM [fluorescent, side channel, partial curve] |
| COCCCN1C(=O)N(c2ccc(F)cc2)C(=O)C1CC(=O)Nc1ccccc1 (stereo unspecified) | inconclusive: 70.8 µM [inhibitor, single point] |
| Cc1c(C(=O)O)sc2nc(CSc3nnc(-c4ccc(F)cc4)n3C)[nH]c(=O)c12 | inconclusive: 17.8 µM [fluorescent, side channel, partial curve] |
| Cc1cc(C)c(C#N)c(SCC(=O)c2cc(C)n(CCc3ccccc3)c2C)n1 | inconclusive: 8.91 µM [inhibitor, single point] |
| Oc1ccc(Nc2nc(-c3ccccc3O)nc3ccccc23)cc1 | inactive |
| COc1ccc(OCCCC(=O)NNC(=O)CCN2CCN(c3ccccc3)CC2)cc1 | inconclusive: 8.91 µM [quencher, side channel, single point] |
| COc1ccc(NS(=O)(=O)c2ccc(C)c(C(=O)NC3CCN(Cc4ccccc4)CC3)c2)cc1 | inconclusive: 14.1 µM [fluorescent, side channel, single point] |
| O=C(Cn1c(C(F)(F)F)nc2ccccc21)OCC(=O)c1c[nH]c2ccccc12 | inconclusive: 10 µM [inhibitor, single point] |
| CN(C)c1ccc(CNc2ccc3c(c2)ncn3C)cc1 | inconclusive: 89.1 µM [quencher, side channel, single point] |
| CC(=O)c1cccc(N(C(=O)c2ccco2)C(C(=O)NC2CCCC2)c2ccc(N3CCOCC3)cc2)c1 (stereo unspecified) | inconclusive: 7.94 µM [fluorescent, side channel, partial curve] |
| Cc1cc(F)ccc1S(=O)(=O)Nc1ccccc1C(=O)Nc1ncn[nH]1 | inactive |
| Cc1cc(=O)[nH]c2cc(Cl)ccc12 | inactive |
| O=C(CSc1nnc(-c2ccc(F)cc2)n1CC1CCCO1)NCc1ccco1 (stereo unspecified) | inconclusive: 7.08 µM [quencher, side channel, partial curve] |
| CC(=O)/C(=N\Nc1ccccc1)Sc1cccc2cccnc12 | inconclusive: 89.1 µM [quencher, side channel, single point] |
| Cc1cc(C(=O)NP(=O)(N2CCOCC2)N2CCOCC2)c(C)n1-c1ccc(N(C)C)cc1 | inconclusive: 50.1 µM [inhibitor, single point] |
| COc1cc(NC(=O)Nc2ccc(C)cc2)cc([N+](=O)[O-])c1 | inconclusive: 15.8 µM [fluorescent, side channel, partial curve] |

In another format: 2 of the compounds above
Cc1cc(F)ccc1S(=O)(=O)Nc1ccccc1C(=O)Nc1ncn[nH]1
  Potency: inactive
Cc1cc(=O)[nH]c2cc(Cl)ccc12
  Potency: inactive
